In paper PMC3816671 (Pharmaceuticals, 2012):
Some peptides are written in HELM: one residue between dots, names in brackets for other building blocks, links after the first $.

Experiment: general procedure: Fmoc solid-phase peptide synthesis; Rink amide resin (0.64 mmol/g); bromoacetic acid/DIC (submonomer method); DIC/HOBt for rhodamine B
Conditions: whole synthesis; for final HPLC purity: reversed phase analytical HPLC (Agilent 1200, C18); for final HPLC purity / isolated yield: scale of the general procedure 50 mg resin per MiniKan

PEPTIDE1{[RhoB].[Nlys].[Nlys].[Nlys].[Nphe].[am]}$$$$V2.0
isolated mass: 10.3 mg
final HPLC purity: 90%
isolated yield: 23%

PEPTIDE1{[RhoB].[Npmb].[Nlys].[Npcb].[Nphe].[am]}$$$$V2.0
isolated mass: 0.89 mg
final HPLC purity: 82%
isolated yield: 2.1%

PEPTIDE1{[RhoB].[Nlys].[Nlys].[Npcb].[Nlys].[am]}$$$$V2.0
isolated mass: 2.67 mg
final HPLC purity: 88%
isolated yield: 5.7%

PEPTIDE1{[RhoB].[Nlys].[Nlys].[Nlys].[Nlys].[am]}$$$$V2.0
isolated mass: 23.8 mg
final HPLC purity: >99%
isolated yield: 49%

PEPTIDE1{[RhoB].[Npmb].[Nlys].[Npcb].[Nlys].[am]}$$$$V2.0
isolated mass: 1.01 mg
final HPLC purity: 83%
isolated yield: 2.3%

PEPTIDE1{[RhoB].[Npmb].[Nlys].[Nlys].[Nphe].[am]}$$$$V2.0
isolated mass: 1.16 mg
final HPLC purity: 85%
isolated yield: 2.7%

PEPTIDE1{[RhoB].[Npmb].[Nlys].[Nlys].[Nlys].[am]}$$$$V2.0
isolated mass: 1.18 mg
final HPLC purity: 83%
isolated yield: 2.5%
